Laboratory results as given in PubChem BioAssay AID1347423 (Functional Genomics Laboratory (NCATS/FGL), 2020).
Hit rate of the full screen: of about 52,000 sequences, about 210 (0.4%) were called active.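 How the source made its calls: active means gene whose silencing raises cell survival under the drug, median off-target-corrected z-score across its silencing RNAs 2 or more; inactive means the rest.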 Some of the results follow.

Test: Resistance to Poly (ADP-Ribose) Polymerase inhibitor: Gene Identification via Genome-wide siRNA Screen
Conditions: mouse BRCA2 R2336H ES cells, olaparib, CellTiter-Glo viability; stronger effect = higher value
Outline: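 Mouse BRCA2 R2336H ES cells were reverse-transfected with siRNA (20 nM final), treated at 48 h with 500 nM olaparib, and read by CellTiter-Glo after 72 h. Scores: MAD-based z per siRNA, median per gene, seed off-target correction.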

Sequence | z-score
GCCUGUCCUAAACUUGACCTT against Cdh13 | inactive: -0.339
CCUUCUCUUUGCUCUAUGUTT against Olfr1284 | inactive: 0.785
GGAAUGAAACCAAGUAUAATT against Calcb | inactive: 0.048
GGCAUUGCAUUCUCACAUGTT against Gabarapl1 | inactive: -0.106
GGACUUGGAGACAUUGCUATT against AI447904 | inactive: -1.21
GCUGUUUCAAAAGUCAUAUTT against Col11a1 | inactive: -0.673
GGCGUAGGGCCAUAUCAUUTT against Olfr109 | inactive: 0.253
CGCAAAAACUGGUGUAACCTT against Arhgef1 | inactive: 0.337
GGCCUUGAAUAGAAAAUGGTT against Olfr1055 | inactive: -2.38
GGCAUUUGCACAGUUUAUGTT against Upp2 | inactive: 0.239
GCAGAAUUGAAUAUUAAGCTT against Upk1b | inactive: 0.851
GCCUUGGCCGAGGUUAAUUTT against 6430402L03Rik | inactive: -0.487
GGAGUAAUGAUAAGCCCUCTT against Tex264 | inactive: -0.394
CCCAAUGCUUGGUGCCUUUTT against C1qtnf2 | inactive: 0.717
GAAGCACAACCUCGGCUUUTT against Mcpr1 | inactive: 0.252
GGACUUGGAACAGAAAAAGTT against Asb8 | inactive: -0.937
CGGUUACUUUUGAAGCUUGTT against 4930415J21Rik | inactive: 0.78
CGUGCUGGUAACGGAAUUGTT against Ptger2 | inactive: -0.484
GGCACUAAUUUAGACAAAGTT against E230015L20Rik | inactive: -0.149
GGAUCAUGCAAACCAAAGCTT against 4930522H14Rik | inactive: -0.657
CGAUUCCUGGACCAUUGUUTT against Tm6sf1 | inactive: -2.72
CCAAAGAAGUUGACUUUUCTT against Rhpn2 | inactive: 0.262
GGAAAGAAGUAUGCCCACATT against Acp5 | inactive: 2.84
GGUUCUCCAGCAAGUGGAUTT against AV125803 | inactive: -0.0995
CCAAGGUGAGGACUUUCCATT against Erp29 | inactive: -0.507
GGCAGUGUGUUAGAUUCUUTT against Cts3 | inactive: -0.339

Sequence | z-score
CCUUUGUUCUGCUCUGUUUTT against Tas2r126 | inactive: 0.371
GGCCAGUAAGACAGAUUAUTT against Rabl3 | inactive: -0.632
CCUGGUACCUCGAUUCCAUTT against 9230102I19Rik | inactive: -0.113
GUACCUCAUGGGCAAGUUCTT against Foxq1 | inactive: -0.437
GGCCCAUUUUGGUGUGCAUTT against Hyal3 | inactive: -0.6
CCUGAUUUGAAGAACAAAATT against Galnt11 | inactive: -0.0763
GGCUGUGACUUUUGAUCUATT against 2310042G06Rik | inactive: -0.719
GGAGAGAUAAUCCAUAAUATT against 2700007P21Rik | inactive: -0.00113
GCAAUUUGCUCAUCUCUAATT against Dcc | inactive: -1.96
GGUUUCAGACUCCAUGAGATT against Gyg1 | inactive: 0.522
GGGAAAAGUUUUAAAGAGCTT against Il31ra | inactive: 0.947
GCAGAAAAAGGAAGGCCACTT against Xlr3b | inactive: 0.727
CCGUGGUACCAUCAAUGACTT against 2310044P18Rik | inactive: 0.691
GGCAGAGAGUCUACAUAUGTT against Bcar3 | inactive: -2.39
GCGCAGUGAAUCAAAUGUUTT against Asrgl1 | inactive: -0.777
GCCAUAAAACAGAAUCUCATT against 4930563P21Rik | inactive: 0.642
CCGAAUAUCGAGUUCCCAATT against 9130012D09Rik | inactive: -0.782
GGGUUAUGGUAGAUUAUCUTT against A830007P12Rik | inactive: -0.954
GCCCAAGUAGCUCUACAGATT against Zbtb3 | inactive: -1.29
GGCCUUUGAUGACUUCAUCTT against Cacna1h | inactive: 1.37
GGUUACUCCUUUUUCAAUGTT against Elf5 | inactive: -0.0212
GGCCUGAAGAAAAAAACCCTT against Gas6 | inactive: 1.22
CCCGGUCUACAGUUAUUCGTT against Hlxb9 | inactive: -1.42
GCAGAUGCUUCGGUGAAAATT against Defb15 | inactive: -0.819
GCGGAAAGAAUCUUGGGAATT against Bcas1 | inactive: -1.99
CCCUCAUACAGAAUUAGUGTT against Zcchc14 | inactive: 0.0824

Sequence | z-score
GGAAAAGACGGAGAGGCAUTT against Hey1 | inactive: 0.821
GGUCAUCAAGCAGUUUCGCTT against Coq7 | inactive: -0.395
GGAAAAGGUUUAUUUUGCUTT against Mtmr6 | inactive: 0.602
GGUGUCCAACAAGCUCAAGTT against F8a | inactive: -2.33
GGGACUAGACUUCUUCGGATT against Ddx52 | inactive: -0.0893
GGAUCUGUUCAGCAAGUCUTT against Cpne6 | inactive: 0.471
GAACUACCUGUGUAAACCUTT against AA407659 | inactive: -0.0494
GGGAUUGUUUCAAGACAAUTT against 2-Sep | inactive: -0.782
GGAAUAGGUCUAGCUGUUGTT against Olfr593 | inactive: 0.391
UCCUUUCUAAUAUCCUCCATT against Olfr912 | inactive: 2.09
CCCUCUAUCCUUAAACCAUTT against 0610007P14Rik | inactive: -2.21
GCUCUACUGCUUCCUUGUUTT against Olfr973 | inactive: -2.32
CCCAAGGUGAACAUAAUCUTT against Stard7 | inactive: -2.2
GGCCUUUCAAGAAGCCAAATT against C430004E15Rik | inactive: -0.175
GGUCCAUUCGGUACAAAAATT against 4930452B06Rik | inactive: 0.295
GGGUUAAUGACUAAAAUGATT against H13 | inactive: 0.715
GGCUAUGAUGUUCACAAAUTT against Cog4 | inactive: 0.0137
GGGACUUAGACACAGGAAGTT against Pcdhb15 | inactive: -2.46
GGCAUGAACAACAUUACCATT against BC052046 | inactive: 0.595
CCUCAUGGCCAAUUUGCACTT against BC023181 | inactive: 1.13
GGAUGUAUUUUGGAGAACGTT against 5730508B09Rik | inactive: -0.0281
GCACAUGUCAGACACGGCATT against Hdc | inactive: -0.185
CCAGAAGUAUAGGACGCACTT against 2310075M15Rik | inactive: -0.81
GGCUUUCAGGUAUUAUAAGTT against Icmt | inactive: 0.753
GGAGUUUCUAACUAAAUUCTT against 4932411N23Rik | inactive: 1.7
CGGUGUACGAGUUAGAGAATT against Crybb3 | inactive: 0.762

Sequence | z-score
GGAUCUUAGCAUGUCAACATT against Zfp330 | inactive: 1.07
GGAGCUGUCCAGGUUUAUUTT against 2400006A19Rik | inactive: -3.32
CCCAAGACUCGUACACGCATT against Ggn | inactive: 1.7
GGCGAAAAGCCUUUUCCCUTT against Zic1 | inactive: 0.506
GGUCGGAGUACAGUUCAAATT against Mum1 | inactive: 0.377
GCCUUGAUAAUGUACGGCATT against Blvra | inactive: -0.193
GCCCUGAGACCACGAUAUUTT against AF067063 | inactive: -0.377
GGAGCUGUGACUAGGAAUGTT against Abo | inactive: -1.16
GCUGAAUUCUCCAACCAACTT against 1190002H23Rik | inactive: -0.487
GCGGUUUCUUCGAGAAACUTT against 9130404D08Rik | inactive: 0.66
CGACAACCUCAACAACGUGTT against Tom1 | inactive: -0.364
CCACAUGGCUAUUCACUAUTT against Spata7 | inactive: 1.06
GGAAUGAAAAAGUUCUACATT against Dnajc10 | inactive: -1.71
GGUGGAGUCUGAACUUAAUTT against Nfatc4 | inactive: -0.17
GGCUUACCUGAGGAAUGCUTT against BC003479 | inactive: -0.626
GGCCCAAGGAUCAAUUUAUTT against 2700019D07Rik | inactive: 0.164
GGCCUACUUGGAUGUGGACTT against Rtn3 | inactive: -0.343
GCUCAGACAUGUUCUUACCTT against BC037527 | inactive: 0.547
CCCACGAGGGAUAUAUCUGTT against Cd3d | inactive: -1.16
CCAAAGUAGAUGUGACCUATT against 2310015N21Rik | inactive: -0.897
GGACUGUCAGUGAUGACUCTT against Hes2 | inactive: 0.523
GGGUAAUUUUAGCAGCGAGTT against Btbd9 | inactive: 0.0319
GGAAUUCCUUACCUUCUUATT against Cyp2c65 | inactive: -0.374
GGCUCUCAGUGCCAUCAUUTT against 2310004N11Rik | inactive: -2.69
GCAGUUGAAUAUCAGACUGTT against Obox5 | inactive: -2.38

7 entries from above in another layout.
Sequence	z-score
GGAAUGAAAAAGUUCUACATT against Dnajc10	inactive: -1.71
GGUGGAGUCUGAACUUAAUTT against Nfatc4	inactive: -0.17
GGCUUACCUGAGGAAUGCUTT against BC003479	inactive: -0.626
GGCCCAAGGAUCAAUUUAUTT against 2700019D07Rik	inactive: 0.164
GGCCUACUUGGAUGUGGACTT against Rtn3	inactive: -0.343
GCUCAGACAUGUUCUUACCTT against BC037527	inactive: 0.547
CCCACGAGGGAUAUAUCUGTT against Cd3d	inactive: -1.16
